Some of the results follow.
Compound: CC1Cc2ccccc2N1C(=O)C1CCCN(C1)C(=O)CCl (mixture of isomers) [TRIM25 ligand 11 (diastereomer mixture)]
Assay: probe-labelled cysteine peptide fold change vs DMSO (competition) (log2 fold change); higher = less target engagement (more negative = stronger competition)
Details: THP-1, incubation time: 4 h
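Also: competitive chemoproteomic profiling in live THP-1 cells with an iodoacetamide desthiobiotin (IA-DTB) probe, comparing probe-labelled peptide intensities in compound-treated cells against DMSO-treated controls.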

Amino acid sequences for entries named in this document (tags omitted). A change or cut given only in a name is not applied to a line headed by its entry.
UniProt O60343: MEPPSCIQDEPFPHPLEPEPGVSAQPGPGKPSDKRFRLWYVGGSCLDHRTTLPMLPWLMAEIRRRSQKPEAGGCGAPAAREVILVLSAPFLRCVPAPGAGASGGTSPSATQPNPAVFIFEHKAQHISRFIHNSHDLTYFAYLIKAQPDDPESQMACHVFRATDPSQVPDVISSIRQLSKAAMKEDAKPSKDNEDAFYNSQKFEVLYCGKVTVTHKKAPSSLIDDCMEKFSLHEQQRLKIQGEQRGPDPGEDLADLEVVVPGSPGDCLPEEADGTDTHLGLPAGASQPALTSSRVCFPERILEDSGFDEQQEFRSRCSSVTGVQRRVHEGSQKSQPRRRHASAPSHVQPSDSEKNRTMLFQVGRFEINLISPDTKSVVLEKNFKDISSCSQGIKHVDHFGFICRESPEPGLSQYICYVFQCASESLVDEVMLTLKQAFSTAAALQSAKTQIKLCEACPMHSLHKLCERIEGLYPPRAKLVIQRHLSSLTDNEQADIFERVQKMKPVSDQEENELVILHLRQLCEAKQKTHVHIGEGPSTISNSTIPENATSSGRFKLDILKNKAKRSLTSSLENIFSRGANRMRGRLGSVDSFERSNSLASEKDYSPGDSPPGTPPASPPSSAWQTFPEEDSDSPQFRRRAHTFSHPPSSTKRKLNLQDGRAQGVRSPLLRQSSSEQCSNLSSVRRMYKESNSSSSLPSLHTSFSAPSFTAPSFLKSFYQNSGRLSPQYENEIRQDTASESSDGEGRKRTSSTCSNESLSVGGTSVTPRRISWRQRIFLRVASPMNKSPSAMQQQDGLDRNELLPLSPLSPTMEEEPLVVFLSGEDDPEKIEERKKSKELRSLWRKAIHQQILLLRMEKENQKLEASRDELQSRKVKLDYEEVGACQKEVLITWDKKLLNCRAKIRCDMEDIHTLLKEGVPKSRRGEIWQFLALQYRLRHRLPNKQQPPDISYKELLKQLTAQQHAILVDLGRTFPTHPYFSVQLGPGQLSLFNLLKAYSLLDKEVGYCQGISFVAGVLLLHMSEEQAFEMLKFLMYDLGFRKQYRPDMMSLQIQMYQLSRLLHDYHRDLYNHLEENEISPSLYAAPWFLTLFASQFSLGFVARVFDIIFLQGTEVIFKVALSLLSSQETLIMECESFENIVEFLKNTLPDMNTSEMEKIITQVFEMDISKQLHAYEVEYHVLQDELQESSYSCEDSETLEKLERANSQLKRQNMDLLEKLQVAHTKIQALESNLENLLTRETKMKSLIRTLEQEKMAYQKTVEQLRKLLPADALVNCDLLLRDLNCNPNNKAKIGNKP
UniProt Q9UHD2: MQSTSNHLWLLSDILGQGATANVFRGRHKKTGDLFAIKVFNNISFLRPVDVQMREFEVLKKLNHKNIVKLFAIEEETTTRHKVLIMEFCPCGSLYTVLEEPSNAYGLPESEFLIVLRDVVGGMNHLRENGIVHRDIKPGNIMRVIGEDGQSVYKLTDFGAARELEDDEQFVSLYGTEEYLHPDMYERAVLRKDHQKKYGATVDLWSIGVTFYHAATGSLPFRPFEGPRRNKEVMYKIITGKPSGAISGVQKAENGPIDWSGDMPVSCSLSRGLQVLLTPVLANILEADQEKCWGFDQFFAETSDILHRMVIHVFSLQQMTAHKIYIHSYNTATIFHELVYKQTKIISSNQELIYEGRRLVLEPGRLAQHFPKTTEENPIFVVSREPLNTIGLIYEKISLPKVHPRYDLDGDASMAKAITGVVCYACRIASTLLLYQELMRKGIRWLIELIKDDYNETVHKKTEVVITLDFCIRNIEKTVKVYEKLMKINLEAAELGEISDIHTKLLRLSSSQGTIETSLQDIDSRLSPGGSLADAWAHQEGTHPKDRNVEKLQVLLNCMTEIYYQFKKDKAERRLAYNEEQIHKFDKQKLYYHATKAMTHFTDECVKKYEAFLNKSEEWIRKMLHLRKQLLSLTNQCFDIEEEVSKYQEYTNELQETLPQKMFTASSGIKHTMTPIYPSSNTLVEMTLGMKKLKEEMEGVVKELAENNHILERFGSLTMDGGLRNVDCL
UniProt Q86TI0: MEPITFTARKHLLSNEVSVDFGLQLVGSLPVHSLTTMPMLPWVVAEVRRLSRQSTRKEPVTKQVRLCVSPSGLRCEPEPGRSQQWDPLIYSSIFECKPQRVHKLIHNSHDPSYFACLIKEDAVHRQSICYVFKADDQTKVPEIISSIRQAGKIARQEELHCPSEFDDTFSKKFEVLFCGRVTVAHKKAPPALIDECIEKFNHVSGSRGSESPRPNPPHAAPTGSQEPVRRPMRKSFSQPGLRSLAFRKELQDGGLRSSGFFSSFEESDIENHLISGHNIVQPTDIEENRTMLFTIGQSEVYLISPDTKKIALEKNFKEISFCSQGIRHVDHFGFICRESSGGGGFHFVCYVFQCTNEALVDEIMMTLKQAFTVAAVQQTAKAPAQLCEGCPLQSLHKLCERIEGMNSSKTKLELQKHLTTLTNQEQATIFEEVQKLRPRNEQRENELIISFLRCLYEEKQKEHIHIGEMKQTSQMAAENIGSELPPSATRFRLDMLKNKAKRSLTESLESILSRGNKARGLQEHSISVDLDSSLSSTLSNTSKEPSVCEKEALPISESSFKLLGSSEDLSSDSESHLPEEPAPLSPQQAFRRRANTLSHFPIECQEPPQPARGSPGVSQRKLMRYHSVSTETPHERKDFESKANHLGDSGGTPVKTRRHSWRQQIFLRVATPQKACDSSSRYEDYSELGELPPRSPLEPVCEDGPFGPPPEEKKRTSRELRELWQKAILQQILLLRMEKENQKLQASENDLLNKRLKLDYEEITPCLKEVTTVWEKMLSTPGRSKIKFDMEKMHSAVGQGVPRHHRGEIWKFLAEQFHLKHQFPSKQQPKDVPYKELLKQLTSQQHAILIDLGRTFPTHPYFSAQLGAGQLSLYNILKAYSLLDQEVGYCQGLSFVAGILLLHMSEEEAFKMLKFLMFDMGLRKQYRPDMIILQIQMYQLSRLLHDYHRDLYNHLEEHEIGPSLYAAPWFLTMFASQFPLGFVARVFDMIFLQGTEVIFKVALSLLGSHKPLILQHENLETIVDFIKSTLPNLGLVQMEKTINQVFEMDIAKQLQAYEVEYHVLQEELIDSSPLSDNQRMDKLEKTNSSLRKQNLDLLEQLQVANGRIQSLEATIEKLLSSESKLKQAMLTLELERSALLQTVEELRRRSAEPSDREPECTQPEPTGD
UniProt Q9BTW9: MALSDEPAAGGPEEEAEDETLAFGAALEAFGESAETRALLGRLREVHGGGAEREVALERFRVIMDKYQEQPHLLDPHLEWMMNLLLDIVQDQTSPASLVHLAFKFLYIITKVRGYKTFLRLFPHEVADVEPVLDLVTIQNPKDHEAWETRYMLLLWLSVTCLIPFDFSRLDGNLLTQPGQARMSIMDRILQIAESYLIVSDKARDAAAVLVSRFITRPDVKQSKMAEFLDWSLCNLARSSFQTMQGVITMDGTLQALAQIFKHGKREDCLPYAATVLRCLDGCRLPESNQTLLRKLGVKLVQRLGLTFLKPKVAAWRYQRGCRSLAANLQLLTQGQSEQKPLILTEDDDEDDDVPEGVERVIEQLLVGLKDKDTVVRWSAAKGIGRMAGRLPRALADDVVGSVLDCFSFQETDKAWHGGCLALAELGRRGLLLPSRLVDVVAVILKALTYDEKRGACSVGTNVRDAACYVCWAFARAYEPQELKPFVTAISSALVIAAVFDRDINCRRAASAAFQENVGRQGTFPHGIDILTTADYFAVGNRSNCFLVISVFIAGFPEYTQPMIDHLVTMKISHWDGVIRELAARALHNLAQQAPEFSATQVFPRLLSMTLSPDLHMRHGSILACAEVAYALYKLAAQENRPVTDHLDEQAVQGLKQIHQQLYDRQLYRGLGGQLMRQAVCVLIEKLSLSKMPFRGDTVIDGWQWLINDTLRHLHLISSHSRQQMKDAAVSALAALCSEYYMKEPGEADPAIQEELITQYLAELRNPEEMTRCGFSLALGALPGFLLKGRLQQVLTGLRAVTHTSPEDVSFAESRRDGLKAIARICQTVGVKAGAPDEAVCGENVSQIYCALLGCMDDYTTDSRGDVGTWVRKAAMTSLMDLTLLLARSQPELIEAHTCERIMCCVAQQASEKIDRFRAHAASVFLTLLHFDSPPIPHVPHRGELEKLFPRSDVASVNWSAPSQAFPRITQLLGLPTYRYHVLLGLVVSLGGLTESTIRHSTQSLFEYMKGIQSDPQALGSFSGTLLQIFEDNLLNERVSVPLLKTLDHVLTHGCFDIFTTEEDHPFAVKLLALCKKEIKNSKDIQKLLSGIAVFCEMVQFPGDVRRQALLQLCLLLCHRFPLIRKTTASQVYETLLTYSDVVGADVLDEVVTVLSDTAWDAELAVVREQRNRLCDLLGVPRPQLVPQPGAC
UniProt Q15545, whole entry: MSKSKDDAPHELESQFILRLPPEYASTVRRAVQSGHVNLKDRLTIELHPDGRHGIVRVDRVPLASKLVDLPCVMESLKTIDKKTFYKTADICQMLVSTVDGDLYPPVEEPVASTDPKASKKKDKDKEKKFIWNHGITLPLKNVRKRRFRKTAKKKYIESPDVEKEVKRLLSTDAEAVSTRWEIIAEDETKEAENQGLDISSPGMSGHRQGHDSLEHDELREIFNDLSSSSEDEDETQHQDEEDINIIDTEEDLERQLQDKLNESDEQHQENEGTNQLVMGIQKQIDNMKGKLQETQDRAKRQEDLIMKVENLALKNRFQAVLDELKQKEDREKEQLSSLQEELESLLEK
UniProt Q96BW9: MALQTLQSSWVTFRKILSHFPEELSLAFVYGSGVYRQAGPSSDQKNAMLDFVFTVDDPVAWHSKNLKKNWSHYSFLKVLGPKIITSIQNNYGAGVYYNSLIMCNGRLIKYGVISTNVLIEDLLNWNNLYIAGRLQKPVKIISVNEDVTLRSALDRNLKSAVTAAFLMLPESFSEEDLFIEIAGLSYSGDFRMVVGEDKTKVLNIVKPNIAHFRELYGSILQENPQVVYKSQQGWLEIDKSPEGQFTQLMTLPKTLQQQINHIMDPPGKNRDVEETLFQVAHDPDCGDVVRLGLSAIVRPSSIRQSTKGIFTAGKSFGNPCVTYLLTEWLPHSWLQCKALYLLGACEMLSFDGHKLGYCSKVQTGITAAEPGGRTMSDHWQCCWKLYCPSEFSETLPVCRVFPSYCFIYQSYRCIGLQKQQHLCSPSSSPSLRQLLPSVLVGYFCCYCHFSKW
UniProt Q9UH65: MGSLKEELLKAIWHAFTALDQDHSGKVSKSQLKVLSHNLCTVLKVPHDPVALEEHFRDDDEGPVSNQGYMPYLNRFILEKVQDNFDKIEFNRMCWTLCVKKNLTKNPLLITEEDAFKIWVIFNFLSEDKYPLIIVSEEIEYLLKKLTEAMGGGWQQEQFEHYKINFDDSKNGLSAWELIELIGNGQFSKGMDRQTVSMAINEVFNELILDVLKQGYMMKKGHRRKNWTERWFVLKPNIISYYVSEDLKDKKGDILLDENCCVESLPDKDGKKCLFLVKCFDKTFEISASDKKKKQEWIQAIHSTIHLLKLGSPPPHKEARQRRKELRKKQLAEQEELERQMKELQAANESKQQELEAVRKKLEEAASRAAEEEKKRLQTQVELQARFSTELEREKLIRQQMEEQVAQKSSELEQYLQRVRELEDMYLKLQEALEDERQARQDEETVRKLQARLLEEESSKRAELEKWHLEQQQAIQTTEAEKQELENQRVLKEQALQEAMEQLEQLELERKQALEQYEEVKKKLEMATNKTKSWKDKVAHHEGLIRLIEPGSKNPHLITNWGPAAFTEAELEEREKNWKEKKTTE
UniProt Q9BW92: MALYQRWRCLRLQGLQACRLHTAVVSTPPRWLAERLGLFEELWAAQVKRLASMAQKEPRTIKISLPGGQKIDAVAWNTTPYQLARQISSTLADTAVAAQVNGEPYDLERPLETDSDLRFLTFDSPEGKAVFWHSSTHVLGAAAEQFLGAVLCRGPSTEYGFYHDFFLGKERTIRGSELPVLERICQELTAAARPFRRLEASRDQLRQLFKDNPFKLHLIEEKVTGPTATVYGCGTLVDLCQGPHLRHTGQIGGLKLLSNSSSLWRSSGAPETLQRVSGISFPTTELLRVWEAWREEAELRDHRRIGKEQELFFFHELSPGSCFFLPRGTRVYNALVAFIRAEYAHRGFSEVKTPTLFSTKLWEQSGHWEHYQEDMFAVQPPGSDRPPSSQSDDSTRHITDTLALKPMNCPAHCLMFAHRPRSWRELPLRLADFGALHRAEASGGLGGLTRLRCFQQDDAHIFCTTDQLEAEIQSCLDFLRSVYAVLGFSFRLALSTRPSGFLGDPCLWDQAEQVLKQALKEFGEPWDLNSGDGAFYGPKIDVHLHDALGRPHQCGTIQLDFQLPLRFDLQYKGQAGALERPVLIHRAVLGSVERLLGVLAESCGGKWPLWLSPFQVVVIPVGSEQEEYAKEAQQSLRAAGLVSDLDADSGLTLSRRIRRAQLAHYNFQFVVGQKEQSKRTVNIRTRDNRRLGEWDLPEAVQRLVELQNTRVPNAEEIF

Row | Target | probe-labelled cysteine peptide fold change (10 µM) | probe-labelled cysteine peptide fold change (50 µM)
1 | TBC1D4_O60343_885_LDYEEVGACQK (UniProt O60343) | 0.00284 | -0.216
2 | TBC1D23_Q9NUY8_86_DCLQFIDQLSVPEEK (UniProt Q9NUY8) | 0.215 | 0.139
3 | TBK1_Q9UHD2_292_CWGFDQFFAETSDILHR (UniProt Q9UHD2) | 0.223 | 0.00117
4 | TBC1D1_Q86TI0_766_LDYEEITPCLK (UniProt Q86TI0) | 0.0592 | -0.032
5 | TBC1D14_Q9P2M4_81_HSLQSVDSGIPTLEIGNPEPVPCSAVHVR (UniProt Q9P2M4) | -0.163 | -0.164
6 | TACC3_Q9Y6A5_20_NTENCDFLFSPPEVTGR (UniProt Q9Y6A5) | -0.00863 | -0.107
7 | TBCD_Q9BTW9_234_MAEFLDWSLCNLAR (UniProt Q9BTW9) | 0.16 | 0.00397
8 | TAF5L_O75529_318_IHLACDILEEEDDEDDNAGTEMK (UniProt O75529) | 0.085 | -0.00589
9 | TAF7_Q15545_72_LVDLPCVMESLK (UniProt Q15545) | -0.198 | -0.107
10 | TAMM41_Q96BW9_285_DVEETLFQVAHDPDCGDVVR (UniProt Q96BW9) | -0.131 | 0.0187
11 | SWAP70_Q9UH65_40_VLSHNLCTVLK (UniProt Q9UH65) | 0.0184 | 0.0423
12 | SYMPK_Q92797_578_AVACSGAAQVR (UniProt Q92797) | -0.0221 | 0.216
13 | SZT2_Q5T011_2339_CPVVVDSSSAQNGAPR (UniProt Q5T011) | 0.00622 | -0.0679
14 | TARS2_Q9BW92_603_LLGVLAESCGGK (UniProt Q9BW92) | 0.278 | 0.355

Single records, from the list above.
SWAP70_Q9UH65_40_VLSHNLCTVLK (UniProt Q9UH65) reads probe-labelled cysteine peptide fold change (10 µM) = 0.0184; probe-labelled cysteine peptide fold change (50 µM) = 0.0423
TBK1_Q9UHD2_292_CWGFDQFFAETSDILHR (UniProt Q9UHD2) reads probe-labelled cysteine peptide fold change (10 µM) = 0.223; probe-labelled cysteine peptide fold change (50 µM) = 0.00117
